Experimental data: the supplement of paper PMC8728848
Some of the results follow.

Columns and labels:
Assay in all cases: glycan array binding signal (z-score within array); higher = stronger binding
Conditions in all cases: glycan notation: IUPAC condensed, linker removed
[1] = molecular target: GalNAc3S(b1-4)[Fuc(a1-3)]GlcNAc
In short: (§1)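 The binding signal is a Z-score computed within each array and averaged over linkers. Arrays of the same protein sequence at different concentrations or buffers were also averaged together. Data originate from 3228 arrays in the Consortium for Functional Glycomics database, kept only where the protein sequence was available.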

[2] = molecular target: GalNAc4S6S(b1-4)GlcNAc
In short: as §1

[3] = molecular target: GalNAc6S(b1-4)GlcNAc
In short: as §1

[4] = molecular target: Glc(a1-4)Glc
In short: as §1

[5] = molecular target: Glc(a1-4)Glc(a1-4)Glc(a1-4)Glc
In short: as §1

[6] = molecular target: Glc(a1-6)Glc(a1-6)Glc
In short: as §1

[7] = molecular target: Glc(a1-6)Glc(a1-6)Glc(a1-6)Glc
In short: as §1

[8] = molecular target: Glc(b1-4)Glc
In short: as §1

[9] = molecular target: Glc(b1-6)Glc
In short: as §1

[10] = molecular target: GlcA(b1-3)Gal
In short: as §1

[11] = molecular target: GlcA(b1-3)GlcNAc
In short: as §1

[12] = molecular target: GlcA(b1-6)Gal
In short: as §1

[13] = molecular target: GlcA3S(b1-3)Gal(b1-4)GlcNAc(b1-2)Man
In short: as §1

[14] = molecular target: GlcA3S(b1-3)Gal(b1-4)GlcNAc(b1-3)Gal(b1-4)Glc
In short: as §1

[15] = molecular target: GlcNAc(a1-3)Gal(b1-4)GlcNAc
In short: as §1

[16] = molecular target: GlcNAc(a1-4)Gal(b1-3)GlcNAc
In short: as §1

[17] = molecular target: GlcNAc(a1-4)Gal(b1-4)GalNAc
In short: as §1

[18] = molecular target: GlcNAc(a1-4)Gal(b1-4)GlcNAc
In short: as §1

[19] = molecular target: GlcNAc(a1-4)Gal(b1-4)GlcNAc(b1-3)Gal(b1-4)Glc
In short: as §1

[20] = molecular target: GlcNAc(a1-4)Gal(b1-4)GlcNAc(b1-3)Gal(b1-4)GlcNAc
In short: as §1

[21] = molecular target: GlcNAc(a1-4)Gal(b1-4)GlcNAc(b1-3)Gal(b1-4)GlcNAc(b1-3)Gal(b1-4)GlcNAc
In short: as §1

[22] = molecular target: GlcNAc(a1-4)Gal(b1-4)GlcNAc(b1-3)Gal(b1-4)[Fuc(a1-3)]GlcNAc(b1-3)Gal(b1-4)[Fuc(a1-3)]GlcNAc
In short: as §1

[23] = molecular target: GlcNAc(a1-6)Gal(b1-4)GlcNAc
In short: as §1

[24] = molecular target: GlcNAc(b1-2)Gal(b1-3)GalNAc
In short: as §1

[25] = molecular target: GlcNAc(b1-2)Man(a1-3)[GlcNAc(b1-2)Man(a1-6)]Man(b1-4)GlcNAc(b1-4)GlcNAc
In short: as §1

[26] = molecular target: GlcNAc(b1-2)Man(a1-3)[GlcNAc(b1-2)Man(a1-6)]Man(b1-4)GlcNAc(b1-4)[Fuc(a1-6)]GlcNAc
In short: as §1

[27] = molecular target: GlcNAc(b1-2)Man(a1-3)[GlcNAc(b1-4)][GlcNAc(b1-2)Man(a1-6)]Man(b1-4)GlcNAc(b1-4)GlcNAc
In short: as §1

[28] = molecular target: GlcNAc(b1-2)Man(a1-3)[GlcNAc(b1-4)][GlcNAc(b1-2)Man(a1-6)]Man(b1-4)GlcNAc(b1-4)[Fuc(a1-6)]GlcNAc
In short: as §1

[29] = molecular target: GlcNAc(b1-2)[GlcNAc(b1-4)]Man(a1-3)[GlcNAc(b1-2)Man(a1-6)]Man(b1-4)GlcNAc(b1-4)GlcNAc
In short: as §1

[30] = molecular target: GlcNAc(b1-2)[GlcNAc(b1-4)]Man(a1-3)[GlcNAc(b1-4)][GlcNAc(b1-2)Man(a1-6)]Man(b1-4)GlcNAc(b1-4)GlcNAc
In short: as §1

[31] = molecular target: GlcNAc(b1-2)[GlcNAc(b1-4)]Man(a1-3)[GlcNAc(b1-4)][GlcNAc(b1-2)[GlcNAc(b1-6)]Man(a1-6)]Man(b1-4)GlcNAc(b1-4)GlcNAc
In short: as §1

[32] = molecular target: GlcNAc(b1-2)[GlcNAc(b1-4)]Man(a1-3)[GlcNAc(b1-4)][GlcNAc(b1-2)[GlcNAc(b1-6)]Man(a1-6)]Man(b1-4)GlcNAc(b1-4)[Fuc(a1-6)]GlcNAc
In short: as §1

[33] = molecular target: GlcNAc(b1-2)[GlcNAc(b1-6)]Man(a1-6)[GlcNAc(b1-2)Man(a1-3)]Man(b1-4)GlcNAc(b1-4)GlcNAc
In short: as §1

[34] = molecular target: GlcNAc(b1-2)[GlcNAc(b1-6)]Man(a1-6)[GlcNAc(b1-2)Man(a1-3)]Man(b1-4)GlcNAc(b1-4)[Fuc(a1-6)]GlcNAc
In short: as §1

[35] = molecular target: GlcNAc(b1-2)[GlcNAc(b1-6)]Man(a1-6)[GlcNAc(b1-4)][GlcNAc(b1-2)Man(a1-3)]Man(b1-4)GlcNAc(b1-4)GlcNAc
In short: as §1

[36] = molecular target: GlcNAc(b1-3)Fuc
In short: as §1

[37] = molecular target: GlcNAc(b1-3)Gal
In short: as §1

[38] = molecular target: GlcNAc(b1-3)Gal(b1-3)GalNAc
In short: as §1

B1: Protein L(B1-B4) (Finegoldia magna), Q51912 (protein)
chain: KEETPETPETDSEEEVTIKANLIFANGSTQTAEFKGTFEKATSEAYAYADTLKKDNGEYTVDVADKGYTLNIKFAGKEKTPEEPKEEVTIKANLIYADGKTQTAEFKGTFEEATAEAYRYADALKKDNGEYTVDVADKGYTLNIKFAGKEKTPEEPKEEVTIKANLIYADGKTQTAEFKGTFEEATAEAYRYADLLAKENGKYTVDVADKGYTLNIKFAGKEKTPEEPKEEVTIKANLIYADGKTQTAEFKGTFAEATAEAYRYADLLAKENGKYTADLEDGGYTINIRFAG
[1]
  glycan array binding signal (z-score): 0.473
[2]
  glycan array binding signal (z-score): -0.886
[3]
  glycan array binding signal (z-score): -1.1
[4]
  glycan array binding signal (z-score): -0.221
[5]
  glycan array binding signal (z-score): -0.236
[6]
  glycan array binding signal (z-score): -0.342
[7]
  glycan array binding signal (z-score): -0.375
[8]
  glycan array binding signal (z-score): -0.438
[9]
  glycan array binding signal (z-score): 0.408
[10]
  glycan array binding signal (z-score): -0.17
[11]
  glycan array binding signal (z-score): -0.785
[12]
  glycan array binding signal (z-score): 2.19
[13]
  glycan array binding signal (z-score): -0.346
[14]
  glycan array binding signal (z-score): -0.921
[15]
  glycan array binding signal (z-score): -0.811
[16]
  glycan array binding signal (z-score): 0.152
[17]
  glycan array binding signal (z-score): 1.64
[18]
  glycan array binding signal (z-score): -0.397
[19]
  glycan array binding signal (z-score): -0.962
[20]
  glycan array binding signal (z-score): -0.246
[21]
  glycan array binding signal (z-score): -0.604
[22]
  glycan array binding signal (z-score): 2.65
[23]
  glycan array binding signal (z-score): -0.584
[24]
  glycan array binding signal (z-score): -1.11
[25]
  glycan array binding signal (z-score): -0.131
[26]
  glycan array binding signal (z-score): 1.7
[27]
  glycan array binding signal (z-score): -0.819
[28]
  glycan array binding signal (z-score): -1.02
[29]
  glycan array binding signal (z-score): 0.094
[30]
  glycan array binding signal (z-score): -0.981
[31]
  glycan array binding signal (z-score): -0.599
[32]
  glycan array binding signal (z-score): -0.418
[33]
  glycan array binding signal (z-score): -0.522
[34]
  glycan array binding signal (z-score): 0.726
[35]
  glycan array binding signal (z-score): -0.709
[36]
  glycan array binding signal (z-score): -1.02
[37]
  glycan array binding signal (z-score): -0.392
[38]
  glycan array binding signal (z-score): 0.17
